Results are given in words; binding and its absence hold for the method and conditions named. Binding seen in cells or lysates may run through a third protein. These calls come from enrichment with a bait or labelling near it, and not all partners need be listed. For some assays here: Where a sequence is shown, tags or fusion partners need not be part of it.
T1: Hrd1a-GFP (Arabidopsis) (UniProt Q9LW77)
T1 sequence: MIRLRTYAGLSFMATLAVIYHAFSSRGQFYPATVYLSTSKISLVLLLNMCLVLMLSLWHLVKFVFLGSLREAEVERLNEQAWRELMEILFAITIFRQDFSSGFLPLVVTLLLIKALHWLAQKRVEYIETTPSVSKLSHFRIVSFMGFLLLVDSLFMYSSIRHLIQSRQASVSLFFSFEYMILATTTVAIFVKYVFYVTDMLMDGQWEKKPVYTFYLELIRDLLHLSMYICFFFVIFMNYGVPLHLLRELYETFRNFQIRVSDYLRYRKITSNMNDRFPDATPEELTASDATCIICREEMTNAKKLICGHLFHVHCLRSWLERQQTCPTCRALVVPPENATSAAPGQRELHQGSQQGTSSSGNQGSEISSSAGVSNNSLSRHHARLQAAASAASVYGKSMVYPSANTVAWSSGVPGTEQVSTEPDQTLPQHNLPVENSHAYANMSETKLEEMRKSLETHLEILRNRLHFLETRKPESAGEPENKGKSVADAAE

Protein sequences, listed by entry. Tags and fused reporters are not part of them. Lines headed by an entry give the natural chain unless they say otherwise; changes in a name come on top.
UniProt P41377: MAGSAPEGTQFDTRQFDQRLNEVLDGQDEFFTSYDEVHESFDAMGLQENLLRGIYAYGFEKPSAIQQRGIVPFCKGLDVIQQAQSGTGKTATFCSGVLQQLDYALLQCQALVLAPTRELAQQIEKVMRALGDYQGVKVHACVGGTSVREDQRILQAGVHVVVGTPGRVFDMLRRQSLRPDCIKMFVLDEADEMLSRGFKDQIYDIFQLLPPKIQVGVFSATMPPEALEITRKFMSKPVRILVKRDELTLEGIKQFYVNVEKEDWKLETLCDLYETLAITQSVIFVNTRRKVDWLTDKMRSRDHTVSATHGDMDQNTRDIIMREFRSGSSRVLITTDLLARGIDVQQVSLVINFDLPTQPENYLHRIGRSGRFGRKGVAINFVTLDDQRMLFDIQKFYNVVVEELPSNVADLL
UniProt Q9SZR6: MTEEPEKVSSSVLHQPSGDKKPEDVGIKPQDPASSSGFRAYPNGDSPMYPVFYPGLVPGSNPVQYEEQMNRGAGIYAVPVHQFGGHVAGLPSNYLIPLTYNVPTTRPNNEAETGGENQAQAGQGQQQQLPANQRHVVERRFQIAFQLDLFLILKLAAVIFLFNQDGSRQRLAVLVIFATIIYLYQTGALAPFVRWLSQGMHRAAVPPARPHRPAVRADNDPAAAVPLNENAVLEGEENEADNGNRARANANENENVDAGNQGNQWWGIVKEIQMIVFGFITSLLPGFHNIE
UniProt F4JX49: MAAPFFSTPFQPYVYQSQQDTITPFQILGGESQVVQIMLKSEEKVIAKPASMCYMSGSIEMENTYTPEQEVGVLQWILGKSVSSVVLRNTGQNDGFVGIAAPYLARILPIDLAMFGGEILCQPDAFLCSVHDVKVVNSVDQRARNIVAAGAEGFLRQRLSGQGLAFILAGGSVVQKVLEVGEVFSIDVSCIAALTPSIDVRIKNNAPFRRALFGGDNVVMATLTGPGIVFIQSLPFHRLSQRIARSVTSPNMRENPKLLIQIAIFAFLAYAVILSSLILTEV
UniProt F4JP55: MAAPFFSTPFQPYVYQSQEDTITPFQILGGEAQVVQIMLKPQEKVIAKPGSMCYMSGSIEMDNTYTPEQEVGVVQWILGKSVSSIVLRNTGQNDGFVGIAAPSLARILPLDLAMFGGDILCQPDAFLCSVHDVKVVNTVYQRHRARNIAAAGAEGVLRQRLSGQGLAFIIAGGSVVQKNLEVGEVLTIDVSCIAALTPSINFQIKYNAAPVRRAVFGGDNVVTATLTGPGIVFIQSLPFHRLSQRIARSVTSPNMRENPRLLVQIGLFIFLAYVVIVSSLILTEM

B1: germin-like protein (At5g20630) (protein, UniProt P94072 21-211)
chain: SVQDFCVADPKGPQSPSGYSCKNPDQVTENDFAFTGLGTAGNTSNIIKAAVTPAFAPAYAGINGLGVSLARLDLAGGGVIPLHTHPGASEVLVVIQGTICAGFISSANKVYLKTLNRGDSMVFPQGLLHFQLNSGKGPALAFVAFGSSSPGLQILPFALFANDLPSELVEATTFLSDAEVKKLKGVLGGTN
B2: EBS6 (protein, UniProt Q8GWH3 24-282)
chain: DQIFPAHLVGTFSRNNREPKYKIEFLPEDSPFHPGDNLESMVMLDKHGNRFLCYLPKEEKATSGWTSSQQNISTVMMETQQLVKLKTPDELLQPLSEKCLFRQEGWWSYEFCHQKYVRQLHVEDENKIVQEFFLGTFDPEATAAFNQTVSDASTDASQRYHSHVYTNGTTCDLTGSPREVEVRFVCAETRAMVTSITELSTCKYALTVQCPTLCKHPLFQLEKPVSHTIHCNAIPVEEDATRNKEEQAVDESPKMIADS
B3: Hrd1a (protein, UniProt Q9LW77 1-492)
chain: T1 sequence

biological target: T1, Hrd1a-GFP (Arabidopsis); assay: affinity purification with mass spectrometry; total proteins or microsomal fraction of transgenic Arabidopsis seedlings; anti-GFP mAb-agarose, anti-MYC or anti-HA agarose; LC-MS/MS; non-transgenic wild type as negative control

binding | Molecule
binds | calcium-dependent lipid-binding protein (At3g14590) (Arabidopsis (endogenous in seedlings))
binds | translational initiation factor EIF4A (At1g54270) (from UniProt P41377 1-412)
binds | B1
binds | B2

Molecule | binding
EBS7 (EMS-mutagenized Bri1 Suppressor7) (from UniProt Q9SZR6) | binds

biological target: HA-tagged EBS7 (Arabidopsis); assay: as above

binding | Molecule
binds | B1
binds | B2
binds | B3

biological target: MYC-tagged EBS7 (Arabidopsis) (UniProt Q9SZR6); assay: as above

binding | Molecule
binds | translational initiation factor EIF4A (At1g54270) (from UniProt P41377 1-412)
binds | Protein Associated With Hrd1-2 (PAWH2) (from UniProt F4JX49)
binds | Protein Associated With Hrd1-1 (PAWH1) (from UniProt F4JP55)
binds | B1
binds | B2
binds | B3
